{"source": "PubChem BioAssay AID1159584, Peter MacCallum Cancer Centre – 2016", "purpose": "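Genes that CDH1-null MCF10A cells selectively depend on to survive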 (primary screen)", "cell system": "human MCF10A breast epithelial cells, parental and CDH1-null", "reagents": "siRNA against human genes", "read-out": "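ATP luminescence (CellTiter-Glo) viability per line relative to mean mock wells over all plates, and the ratio of CDH1-null to parental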", "reading the numbers": "CDH1-null / parental viability ratio: higher = CDH1-null cells survive relatively better than parental; CDH1-null viability vs mock: higher = more viable CDH1-null cells", "units": "CDH1-null viability vs mock in fraction of mock", "note": "In all, the deposit lists about 18,000 reagents; below is a part drawn at random. Further read-outs or replicates are left out here. Not given: the amount of reagent, the time to read-out."}
{"Gene": "ZNF350 (GeneID 59348)", "PubChem SID": "SID135623400", "CDH1-null / parental viability ratio": 0.91, "CDH1-null viability vs mock": 0.78}
{"Gene": "GOLGA7 (GeneID 51125)", "PubChem SID": "SID152154386", "CDH1-null / parental viability ratio": 0.96, "CDH1-null viability vs mock": 0.98}
{"Gene": "OR13A1 (GeneID 79290)", "PubChem SID": "SID152152278", "CDH1-null / parental viability ratio": 1.07, "CDH1-null viability vs mock": 0.87}
{"Gene": "LRRC55 (GeneID 219527)", "PubChem SID": "SID152152919", "CDH1-null / parental viability ratio": 0.83, "CDH1-null viability vs mock": 0.72}
{"Gene": "SLCO2A1 (GeneID 6578)", "PubChem SID": "SID134312486", "CDH1-null / parental viability ratio": 1.35, "CDH1-null viability vs mock": 1}
{"Gene": "SPINT2 (GeneID 10653)", "PubChem SID": "SID135621905", "CDH1-null / parental viability ratio": 0.92, "CDH1-null viability vs mock": 0.94}
{"Gene": "KCNK1 (GeneID 3775)", "PubChem SID": "SID135621168", "CDH1-null / parental viability ratio": 1.03, "CDH1-null viability vs mock": 0.7}
{"Gene": "RAD51D (GeneID 5892)", "PubChem SID": "SID134321402", "CDH1-null / parental viability ratio": 1.08, "CDH1-null viability vs mock": 0.82}
{"Gene": "PRDM15 (GeneID 63977)", "PubChem SID": "SID152148629", "CDH1-null / parental viability ratio": 1.19, "CDH1-null viability vs mock": 0.88}
{"Gene": "NMRK1 (GeneID 54981)", "PubChem SID": "SID134311962", "CDH1-null / parental viability ratio": 0.97, "CDH1-null viability vs mock": 0.92}
{"Gene": "SNX21 (GeneID 90203)", "PubChem SID": "SID135622575", "CDH1-null / parental viability ratio": 0.84, "CDH1-null viability vs mock": 0.69}
{"Gene": "STUB1 (GeneID 10273)", "PubChem SID": "SID152155516", "CDH1-null / parental viability ratio": 1.03, "CDH1-null viability vs mock": 0.92}
{"Gene": "MAIP1 (GeneID 79568)", "PubChem SID": "SID134318516", "CDH1-null / parental viability ratio": 1.18, "CDH1-null viability vs mock": 0.9}
{"Gene": "UPRT (GeneID 139596)", "PubChem SID": "SID152151482", "CDH1-null / parental viability ratio": 0.89, "CDH1-null viability vs mock": 0.57}
{"Gene": "FNDC3B (GeneID 64778)", "PubChem SID": "SID134321764", "CDH1-null / parental viability ratio": 0.75, "CDH1-null viability vs mock": 0.57}
{"Gene": "ENTPD2 (GeneID 954)", "PubChem SID": "SID134315227", "CDH1-null / parental viability ratio": 1.11, "CDH1-null viability vs mock": 0.5}
{"Gene": "PPP1R17 (GeneID 10842)", "PubChem SID": "SID56479279", "CDH1-null / parental viability ratio": 0.71, "CDH1-null viability vs mock": 0.51}
{"Gene": "PRSS22 (GeneID 64063)", "PubChem SID": "SID152152047", "CDH1-null / parental viability ratio": 1.12, "CDH1-null viability vs mock": 0.72}
{"Gene": "GUCY1B1 (GeneID 2983)", "PubChem SID": "SID134311968", "CDH1-null / parental viability ratio": 0.84, "CDH1-null viability vs mock": 0.69}
{"Gene": "FNBP1L (GeneID 54874)", "PubChem SID": "SID135624044", "CDH1-null / parental viability ratio": 1.49, "CDH1-null viability vs mock": 0.82}
{"Gene": "ECD (GeneID 11319)", "PubChem SID": "SID135623807", "CDH1-null / parental viability ratio": 0.74, "CDH1-null viability vs mock": 0.74}
{"Gene": "PCDH10 (GeneID 57575)", "PubChem SID": "SID134317398", "CDH1-null / parental viability ratio": 0.95, "CDH1-null viability vs mock": 1.04}
{"Gene": "TMPRSS15 (GeneID 5651)", "PubChem SID": "SID134311439", "CDH1-null / parental viability ratio": 1.14, "CDH1-null viability vs mock": 0.8}
{"Gene": "RIC8B (GeneID 55188)", "PubChem SID": "SID135624116", "CDH1-null / parental viability ratio": 1.04, "CDH1-null viability vs mock": 0.88}
{"Gene": "OR13F1 (GeneID 138805)", "PubChem SID": "SID152155308", "CDH1-null / parental viability ratio": 1.07, "CDH1-null viability vs mock": 0.6}
{"Gene": "MTF2 (GeneID 22823)", "PubChem SID": "SID135622402", "CDH1-null / parental viability ratio": 1.12, "CDH1-null viability vs mock": 0.75}
{"Gene": "PPP2R2D (GeneID 55844)", "PubChem SID": "SID152155504", "CDH1-null / parental viability ratio": 1.17, "CDH1-null viability vs mock": 0.9}
{"Gene": "ADRB3 (GeneID 155)", "PubChem SID": "SID134310882", "CDH1-null / parental viability ratio": 1.37, "CDH1-null viability vs mock": 0.82}
{"Gene": "TARBP2 (GeneID 6895)", "PubChem SID": "SID152155281", "CDH1-null / parental viability ratio": 1.25, "CDH1-null viability vs mock": 0.75}
{"Gene": "AKIRIN1 (GeneID 79647)", "PubChem SID": "SID134318540", "CDH1-null / parental viability ratio": 1.19, "CDH1-null viability vs mock": 0.92}
{"Gene": "SIRT2 (GeneID 22933)", "PubChem SID": "SID152155160", "CDH1-null / parental viability ratio": 0.81, "CDH1-null viability vs mock": 0.7}
{"Gene": "PLCD1 (GeneID 5333)", "PubChem SID": "SID135621722", "CDH1-null / parental viability ratio": 0.78, "CDH1-null viability vs mock": 0.7}
{"Gene": "RNF138 (GeneID 51444)", "PubChem SID": "SID152149356", "CDH1-null / parental viability ratio": 1.04, "CDH1-null viability vs mock": 0.54}
{"Gene": "BCKDK (GeneID 10295)", "PubChem SID": "SID135620909", "CDH1-null / parental viability ratio": 0.75, "CDH1-null viability vs mock": 0.53}
{"Gene": "HAUS1 (GeneID 115106)", "PubChem SID": "SID134319531", "CDH1-null / parental viability ratio": 1.05, "CDH1-null viability vs mock": 0.99}
{"Gene": "FLNA (GeneID 2316)", "PubChem SID": "SID152150874", "CDH1-null / parental viability ratio": 1.1, "CDH1-null viability vs mock": 0.68}
{"Gene": "TIGD3 (GeneID 220359)", "PubChem SID": "SID135623335", "CDH1-null / parental viability ratio": 0.96, "CDH1-null viability vs mock": 0.44}
{"Gene": "ARHGAP1 (GeneID 392)", "PubChem SID": "SID134313807", "CDH1-null / parental viability ratio": 0.81, "CDH1-null viability vs mock": 0.7}
{"Gene": "CTSC (GeneID 1075)", "PubChem SID": "SID135621081", "CDH1-null / parental viability ratio": 1.47, "CDH1-null viability vs mock": 0.88}
{"Gene": "SLC25A36 (GeneID 55186)", "PubChem SID": "SID152149921", "CDH1-null / parental viability ratio": 1.05, "CDH1-null viability vs mock": 0.82}
{"Gene": "OR2A2 (GeneID 442361)", "PubChem SID": "SID152152309", "CDH1-null / parental viability ratio": 1.41, "CDH1-null viability vs mock": 0.48}
{"Gene": "ZNF766 (GeneID 90321)", "PubChem SID": "SID135624405", "CDH1-null / parental viability ratio": 0.95, "CDH1-null viability vs mock": 0.72}
{"Gene": "CASKIN1 (GeneID 57524)", "PubChem SID": "SID135622655", "CDH1-null / parental viability ratio": 1.22, "CDH1-null viability vs mock": 0.66}
{"Gene": "SFTPB (GeneID 6439)", "PubChem SID": "SID135623715", "CDH1-null / parental viability ratio": 1.2, "CDH1-null viability vs mock": 0.98}
{"Gene": "CCL11 (GeneID 6356)", "PubChem SID": "SID134312763", "CDH1-null / parental viability ratio": 0.68, "CDH1-null viability vs mock": 0.52}

Targets above whose target name starts with R or r (3):
{"Gene": "RAD51D (GeneID 5892)", "PubChem SID": "SID134321402", "CDH1-null / parental viability ratio": 1.08, "CDH1-null viability vs mock": 0.82}
{"Gene": "RIC8B (GeneID 55188)", "PubChem SID": "SID135624116", "CDH1-null / parental viability ratio": 1.04, "CDH1-null viability vs mock": 0.88}
{"Gene": "RNF138 (GeneID 51444)", "PubChem SID": "SID152149356", "CDH1-null / parental viability ratio": 1.04, "CDH1-null viability vs mock": 0.54}
